Results are given in words; binding and its absence hold for the method and conditions named. Blank lines part the entries; values can stand above or below the binder they belong to.
Legend:
[1] = biological target: short GA DPRs fragment photoreleased from ADP-3 [cysteine-(glycine-alanine)3] (human); test: slot blot with the amyloid-oligomer-specific antibody A11; total lysates (RIPA, 50 ug protein) of SH-SY5Y cells treated with ADP-1 or ADP-3, with or without photoinitiation, over time; A11 signal normalised to GAPDH
[2] = biological target: short GA DPRs fragment photoreleased from ADP-3 [cysteine-(glycine-alanine)3] (human); test: transmission electron microscopy + turbidity; irradiated and unirradiated ADP-3, up to 96 h of incubation; both purified
[3] = biological target: ADP-3, unirradiated [cysteine-(glycine-alanine)3-photolinker-lysine8] (human); test: as above
[4] = biological target: Alexa Fluor 488-labelled short GA DPRs fragment photoreleased from ADP-4 [Alexa Fluor 488-cysteine-(glycine-alanine)3] (human); test: fluorescence lifetime imaging microscopy (self-quenching); photoinitiated probe in solution (ADP-2 5 uM), 37 C, 0.5, 2 and 24 h of incubation; both purified

binding [1]: no binding
binding [2]: no binding
B1: short GA DPRs fragment photoreleased from ADP-3 [cysteine-(glycine-alanine)3] (peptide)
peptide: CGAGAGA

binding [3]: no binding
B2: ADP-3, unirradiated [cysteine-(glycine-alanine)3-photolinker-lysine8] (peptide)
peptide: CGAGAGAKKKKKKKK
modifications: photolabile methoxynitrobenzene linker (PL) between (GA)3 and K8

binding [4]: no binding
B3: Alexa Fluor 488-labelled short GA DPRs fragment photoreleased from ADP-4 [Alexa Fluor 488-cysteine-(glycine-alanine)3] (peptide)
peptide: CGAGAGA
modifications: Alexa Fluor 488 on the N-terminal cysteine
